Five molecules from publication PMC9481612, “Molecular architecture of the augmin complex” (Nature Communications, 2022) can be followed below.

Sequences of proteins named here, by UniProt entry; tags and fusion partners are left off. A change or cut given only in a name is not applied to a line headed by its entry.
UniProt Q9H6D7: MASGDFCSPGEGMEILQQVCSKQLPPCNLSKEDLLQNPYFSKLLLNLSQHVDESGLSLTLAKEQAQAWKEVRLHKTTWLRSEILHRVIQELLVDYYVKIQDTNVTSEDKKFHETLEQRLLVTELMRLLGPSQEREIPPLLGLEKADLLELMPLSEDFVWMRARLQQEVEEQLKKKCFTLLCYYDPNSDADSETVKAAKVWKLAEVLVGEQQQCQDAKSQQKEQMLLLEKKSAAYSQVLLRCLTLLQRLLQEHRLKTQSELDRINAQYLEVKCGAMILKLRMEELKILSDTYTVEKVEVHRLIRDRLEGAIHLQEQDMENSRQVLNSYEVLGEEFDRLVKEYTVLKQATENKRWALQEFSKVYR

Experiment [1] concerns the target T1, HAUS2 (human) (UniProt Q9NVX0).
T1 sequence: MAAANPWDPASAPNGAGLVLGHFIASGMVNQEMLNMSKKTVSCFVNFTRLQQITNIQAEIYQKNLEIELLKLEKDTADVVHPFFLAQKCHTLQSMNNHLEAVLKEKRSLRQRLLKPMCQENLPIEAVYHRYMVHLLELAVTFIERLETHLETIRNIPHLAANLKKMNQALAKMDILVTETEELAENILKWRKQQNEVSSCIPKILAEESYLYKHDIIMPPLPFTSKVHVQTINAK
As to the kind of experiment: cryo-EM structure; augmin^ΔH6C octamer on thin amorphous carbon film, Volta Phase Plate; head, neck and legs refined separately to 5–7 Å; subunits placed by fitting AlphaFold2/ColabFold models into the maps; both purified.

For experiment [2], the target named is T2, HAUS8 (human) (UniProt Q9BT25).
T2 sequence: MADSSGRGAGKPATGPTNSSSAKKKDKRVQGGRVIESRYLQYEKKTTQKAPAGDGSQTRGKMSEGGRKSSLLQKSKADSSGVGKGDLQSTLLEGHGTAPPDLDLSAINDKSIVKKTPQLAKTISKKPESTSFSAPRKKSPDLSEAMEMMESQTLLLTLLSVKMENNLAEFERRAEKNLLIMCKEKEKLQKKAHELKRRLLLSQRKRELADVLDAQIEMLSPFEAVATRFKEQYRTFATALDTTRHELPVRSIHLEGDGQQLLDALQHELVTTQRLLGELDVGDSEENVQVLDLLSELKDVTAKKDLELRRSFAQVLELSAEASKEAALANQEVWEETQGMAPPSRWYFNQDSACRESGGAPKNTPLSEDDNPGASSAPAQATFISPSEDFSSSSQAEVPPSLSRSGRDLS
Described as above.

Experiment [3] has as its target T1, HAUS2 (human). Put plainly: co-purification; holo-complex, eight subunits co-expressed in High5 cells; cleared lysate on StrepII-Trap (tag on H2), eluted with D-desthiobiotin, then Superose 6; SDS-PAGE.
The target of experiment [4] is T1, HAUS2 (human). As to the kind of experiment: cross-linking; purified augmin^ΔH6C with DSSO at 250:1, 500:1, 750:1 and 1000:1 molar ratio, 1 h on ice; trypsin in gel or in solution, LC-MS/MS, MetaMorpheus, 1% FDR; both purified.
Experiment [5] concerns the target T2, HAUS8 (human). Described as above.
For experiment [6], the target named is HAUS7 (human). The experiment is described as above.
In experiment [7] the target is HAUS7 (human). As to the kind of experiment: cryo-EM structure; augmin^ΔH6C octamer on thin amorphous carbon film, Volta Phase Plate; head, neck and legs refined separately to 5–7 Å; subunits placed by fitting AlphaFold2/ColabFold models into the maps; both purified.
In experiment [8] the target is HAUS4 (human) (UniProt Q9H6D7). As to the kind of experiment: cross-linking; purified augmin^ΔH6C with DSSO at 250:1, 500:1, 750:1 and 1000:1 molar ratio, 1 h on ice; trypsin in gel or in solution, LC-MS/MS, MetaMorpheus, 1% FDR; both purified.
The target in experiment [9] is HAUS4 (human) (UniProt Q9H6D7). As to the kind of experiment: cryo-EM structure; augmin^ΔH6C octamer on thin amorphous carbon film, Volta Phase Plate; head, neck and legs refined separately to 5–7 Å; subunits placed by fitting AlphaFold2/ColabFold models into the maps; both purified.

These are yes or no findings as the source states them, for the method shown. Binding calls can cover weak binding; strength is not graded here. For some of these results: In cells and extracts the contact can be indirect.

For the molecule HAUS7 (human), the binding result in the experiment with HAUS2 (human) [1], with HAUS8 (human) [2], with HAUS2 (human) [3], with HAUS2 (human) [4] and in the experiment with HAUS8 (human) [5] was “binds” throughout.

B1: HAUS5 (protein, UniProt O94927 1-633)
chain: MELAQEARELGCWAVEEMGVPVAARAPESTLRRLCLGQGADIWAYILQHVHSQRTVKKIRGNLLWYGHQDSPQVRRKLELEAAVTRLRAEIQELDQSLELMERDTEAQDTAMEQARQHTQDTQRRALLLRAQAGAMRRQQHTLRDPMQRLQNQLRRLQDMERKAKVDVTFGSLTSAALGLEPVVLRDVRTACTLRAQFLQNLLLPQAKRGSLPTPHDDHFGTSYQQWLSSVETLLTNHPPGHVLAALEHLAAEREAEIRSLCSGDGLGDTEISRPQAPDQSDSSQTLPSMVHLIQEGWRTVGVLVSQRSTLLKERQVLTQRLQGLVEEVERRVLGSSERQVLILGLRRCCLWTELKALHDQSQELQDAAGHRQLLLRELQAKQQRILHWRQLVEETQEQVRLLIKGNSASKTRLCRSPGEVLALVQRKVVPTFEAVAPQSRELLRCLEEEVRHLPHILLGTLLRHRPGELKPLPTVLPSIHQLHPASPRGSSFIALSHKLGLPPGKASELLLPAAASLRQDLLLLQDQRSLWCWDLLHMKTSLPPGLPTQELLQIQASQEKQQKENLGQALKRLEKLLKQALERIPELQGIVGDWWEQPGQAALSEELCQGLSLPQWRLRWVQAQGALQKLCS
For B1, the binding result with HAUS7 (human) [6] is on record as “binds”.

B2: HAUS6 N-terminal region (a.a. 1–432) (domain or fragment, UniProt Q7Z4H7 1-432)
chain: MSSASVTAFEKEHLWMYLQALGFEPGPATIACGKIVSHTHLGVNMFDKLNRDAFHIISYFLFQVLDQSLTKEVFKFCWPPFDQKSDTEFRKHCCEWIKRISGECGSSFPQVVGSLFLSPGGPKFIHLMYHFARFVAMKYIKSNSKNSSHHFVETFNIKPQDLHKCIARCHFARSRFLQILQRQDCVTQKYQENAQLSVKQVRNLRSECIGLENQIKKMEPYDDHSNMEEKIQKVRSLWASVNETLMFLEKEREVVSSVLSLVNQYALDGTNVAINIPRLLLDKIEKQMFQLHIGNVYEAGKLNLLTVIQLLNEVLKVMKYERCQADQARLTVDLHYLEKETKFQKERLSDLKHMRYRIKDDLTTIRHSVVEKQGEWHKKWKEFLGLSPFSLIKGWTPSVDLLPPMSPLSFDPASEEVYAKSILCQYPASLPD
Turning to B2, the binding result in the experiment with HAUS7 (human) [7] is on record as “binds”.

B3: HAUS3 (natural protein, human, UniProt Q68CZ6 1-603, looked up)
chain: MSCGNEFVETLKKIGYPKADNLNGEDFDWLFEGVEDESFLKWFCGNVNEQNVLSERELEAFSILQKSGKPILEGAALDEALKTCKTSDLKTPRLDDKELEKLEDEVQTLLKLKNLKIQRRNKCQLMASVTSHKSLRLNAKEEEATKKLKQSQGILNAMITKISNELQALTDEVTQLMMFFRHSNLGQGTNPLVFLSQFSLEKYLSQEEQSTAALTLYTKKQFFQGIHEVVESSNEDNFQLLDIQTPSICDNQEILEERRLEMARLQLAYICAQHQLIHLKASNSSMKSSIKWAEESLHSLTSKAVDKENLDAKISSLTSEIMKLEKEVTQIKDRSLPAVVRENAQLLNMPVVKGDFDLQIAKQDYYTARQELVLNQLIKQKASFELLQLSYEIELRKHRDIYRQLENLVQELSQSNMMLYKQLEMLTDPSVSQQINPRNTIDTKDYSTHRLYQVLEGENKKKELFLTHGNLEEVAEKLKQNISLVQDQLAVSAQEHSFFLSKRNKDVDMLCDTLYQGGNQLLLSDQELTEQFHKVESQLNKLNHLLTDILADVKTKRKTLANNKLHQMEREFYVYFLKDEDYLKDIVENLETQSKIKAVSLED
notes: HAUS3, human; 603; also called H3; source: High5 insect cells, co-infected with baculoviruses; purified as part of the augmin octamer (StrepII-Trap, Superose 6)
Regarding B3, the binding result with HAUS4 (human) [8] is “binds”.

B4: HAUS1 (protein, UniProt Q96CS2 1-278)
chain: MEPQEERETQVAAWLKKIFGDHPIPQYEVNPRTTEILHHLSERNRVRDRDVYLVIEDLKQKASEYESEAKYLQDLLMESVNFSPANLSSTGSRYLNALVDSAVALETKDTSLASFIPAVNDLTSDLFRTKSKSEEIKIELEKLEKNLTATLVLEKCLQEDVKKAELHLSTERAKVDNRRQNMDFLKAKSEEFRFGIKAAEEQLSARGMDASLSHQSLVALSEKLARLKQQTIPLKKKLESYLDLMPNPSLAQVKIEEAKRELDSIEAELTRRVDMMEL
For the molecule B4, the binding entry in the experiment with HAUS4 (human) [9] and with HAUS4 (human) [8] was “binds” each time.
